In the supplement of paper PMC8960247:

Key:
621-102 (TSC2-deficient) = assay: relative viability vs DMSO; higher = less cytotoxic; conditions: serum: 10% FBS, 72 h
621-103 (TSC2-rescued) = assay: as above; conditions: serum: 10% FBS, 72 h
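Also: immortalized renal angiomyolipoma cells stably carrying empty vector or TSC2, dosed in 384-well plates in DMEM, viability normalized to vehicle-treated wells within each plate.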

Cc1ccccc1-n1c(Cn2nc(-c3cccc(O)c3)c3c(N)ncnc32)nc2cccc(C)c2c1=O [PIK-294]
relative viability [%]
Conditions	0.0001 µM	0.001 µM	0.01 µM	0.1 µM	1 µM	10 µM
621-102 (TSC2-deficient)	98.747	116	112.66	109.8	108	89.8
621-103 (TSC2-rescued)	116	101	110.2	111	111.5	93.7
